Measured values taken from paper PMC11297322, “MEILB2-BRME1 forms a V-shaped DNA clamp upon BRCA2-binding in meiotic recombination” (Nature Communications, 2023).
These are yes or no findings as the source states them, for the method shown. Binding seen in cells or lysates may run through a third protein. Some binding calls cover weakened binding; strength is not graded here. Where a sequence is shown, tags or fusion partners need not be part of it.

Molecular target: T1, MBP–MEILB2α (mouse MEILB2 22–81 with N-terminal MBP) (mouse) (UniProt Q9D4G2)
T1 sequence: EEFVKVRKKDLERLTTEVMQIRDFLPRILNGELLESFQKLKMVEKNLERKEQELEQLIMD
Assay: pull-down; amylose pulldown of His-BRME1MBD with MBP–MEILB2α following recombinant co-expression; amylose elution fractions on SDS–PAGE

- binding: binds
B1: BRME1MBD (mouse BRME1 amino-acids 540–578) (domain or fragment, UniProt Q6DIA7 540-578, looked up)
chain: RMQDATDTVRGLVVELSGLNRLIMSTHRDLEAFKRRKTK
notes: source: E. coli BL21 (DE3), purified in complex with MEILB2 (Ni-NTA, amylose, ion exchange, TEV cleavage, SEC); not shown: His6, N-terminal, cleaved
